Taken from: PubChem BioAssay AID602196 (INSERM, 2012)
Screen: 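Genes whose knock-down alters cisplatin killing of lung cancer cells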. System: human A549 lung cancer cells. Reagents: siRNA pair against human genes. Duration: 48 h transfection before cisplatin; time from cisplatin to read-out not stated. Conditions: cisplatin at a dose killing half of control-siRNA cells; exact dose and duration not given. Measured: 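Shift in cisplatin death relative to control siRNA, from -50 (all cells die) to +50 (no cells die); siRNAs harmful on their own scored 0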. Scale: two-siRNA summed score (-2 to +2): higher = both siRNAs protect from cisplatin killing; -2 means both sensitise. Active means: 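Each siRNA scores 0 if harmful alone by LDH or WST-1, otherwise +1 if it reduces and -1 if it increases cisplatin killing; a gene is active when both siRNAs agree (sum +2 or -2)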. Meaning of the calls: active = both siRNAs shift cisplatin killing the same way; inactive = no consistent shift, or siRNA harmful alone.
The whole screen tested about 23,000 reagents; this is an unselected part. 455 of all reagents (2%) count as active. 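Active includes both protection and sensitisation; some change values fall well beyond the stated -50 to +50 range.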 Further read-outs or replicates are left out here. Not given: the amount of reagent.

PI4KA [SID131521534]
- two-siRNA summed score (-2 to +2): 1
- call: inactive

LOC441551 [SID131520706]
- two-siRNA summed score (-2 to +2): 1
- call: inactive

MROH2A [SID131516963]
- two-siRNA summed score (-2 to +2): 0
- call: inactive

LOC441885 [SID131502276]
- two-siRNA summed score (-2 to +2): -1
- call: inactive

TNFSF4 [SID131510568]
- two-siRNA summed score (-2 to +2): 0
- call: inactive

FLJ39824 [SID131514641]
- two-siRNA summed score (-2 to +2): 0
- call: inactive

LOC441437 [SID131504987]
- two-siRNA summed score (-2 to +2): 0
- call: inactive

LOC387784 [SID131520845]
- two-siRNA summed score (-2 to +2): 1
- call: inactive

SCAMP4 [SID131501253]
- two-siRNA summed score (-2 to +2): -1
- call: inactive

CXCL9 [SID131503011]
- two-siRNA summed score (-2 to +2): 0
- call: inactive

LOC390284 [SID131510117]
- two-siRNA summed score (-2 to +2): 0
- call: inactive

HADHA [SID131501406]
- two-siRNA summed score (-2 to +2): -1
- call: inactive

LOC149934 [SID131512712]
- two-siRNA summed score (-2 to +2): 0
- call: inactive

FAM135B [SID131519549]
- two-siRNA summed score (-2 to +2): 1
- call: inactive

RPP38 [SID131500751]
- two-siRNA summed score (-2 to +2): -1
- call: inactive

F5 [SID131515967]
- two-siRNA summed score (-2 to +2): 0
- call: inactive

LOC440732 [SID131513379]
- two-siRNA summed score (-2 to +2): 0
- call: inactive

SPANXN1 [SID131520339]
- two-siRNA summed score (-2 to +2): 1
- call: inactive

PHF11 [SID131505400]
- two-siRNA summed score (-2 to +2): 0
- call: inactive

ZNF638 [SID131516191]
- two-siRNA summed score (-2 to +2): 0
- call: inactive

ZNF638 [SID131517604]
- two-siRNA summed score (-2 to +2): 0
- call: inactive

COL26A1 [SID131513969]
- two-siRNA summed score (-2 to +2): 0
- call: inactive

ZFHX2 [SID131503755]
- two-siRNA summed score (-2 to +2): 0
- call: inactive

ZFHX2 [SID131516361]
- two-siRNA summed score (-2 to +2): 0
- call: inactive

UMOD [SID131514816]
- two-siRNA summed score (-2 to +2): 0
- call: inactive

LOC401584 [SID131522059]
- two-siRNA summed score (-2 to +2): 1
- call: inactive

AHNAK2 [SID131503605]
- two-siRNA summed score (-2 to +2): 0
- call: inactive

PPEF2 [SID131506114]
- two-siRNA summed score (-2 to +2): 0
- call: inactive

RHOB [SID131510763]
- two-siRNA summed score (-2 to +2): 0
- call: inactive

SUDS3 [SID131500659]
- two-siRNA summed score (-2 to +2): -1
- call: inactive

CA2 [SID131511255]
- two-siRNA summed score (-2 to +2): 0
- call: inactive

CORT [SID131508534]
- two-siRNA summed score (-2 to +2): 0
- call: inactive

TINAGL1 [SID131511390]
- two-siRNA summed score (-2 to +2): 0
- call: inactive

COXFA4 [SID131504250]
- two-siRNA summed score (-2 to +2): 0
- call: inactive

HAP1 [SID131512746]
- two-siRNA summed score (-2 to +2): 0
- call: inactive

LGALS3 [SID131505463]
- two-siRNA summed score (-2 to +2): 0
- call: inactive

LGALS3 [SID131522712]
- two-siRNA summed score (-2 to +2): 1
- call: inactive

NMNAT2 [SID131501026]
- two-siRNA summed score (-2 to +2): -1
- call: inactive

SINHCAF [SID131516133]
- two-siRNA summed score (-2 to +2): 0
- call: inactive

OR51D1 [SID131516526]
- two-siRNA summed score (-2 to +2): 0
- call: inactive

Targets listed so far whose gene name begins with R or r (2):
RPP38 [SID131500751]
- two-siRNA summed score (-2 to +2): -1
- call: inactive

RHOB [SID131510763]
- two-siRNA summed score (-2 to +2): 0
- call: inactive
